These are yes or no findings as the source states them, for the method shown. Binding seen in cells or lysates may run through a third protein. Some results given as binding are weak or reduced against the parent protein; the word gives no strength.
Assays:
EIF3η = assay: co-immunoprecipitation: anti-GFP IP from lysate of transfected HeLa S3 cells (0 or 20 nM pateamine A, 30 min), immunoblot with anti-eIF3η
EIF2α = assay: co-immunoprecipitation: anti-GFP IP from lysate of transfected HeLa S3 cells (0 or 20 nM pateamine A, 30 min), immunoblot with anti-eIF2α
[1] = biological target: DDX6 (human (HeLa S3 cells)) (UniProt P26196); assay: co-immunoprecipitation: anti-GFP IP from lysate of transfected HeLa S3 cells (0 or 20 nM pateamine A, 30 min), immunoblot with anti-DDX6
[2] = biological target: PABP (human (HeLa S3 cells)) (UniProt P11940); assay: co-immunoprecipitation: anti-GFP IP from lysate of transfected HeLa S3 cells (0 or 20 nM pateamine A, 30 min), immunoblot with anti-PABP

The chains behind the UniProt entries cited, without tags or fusion partners.
UniProt P26196: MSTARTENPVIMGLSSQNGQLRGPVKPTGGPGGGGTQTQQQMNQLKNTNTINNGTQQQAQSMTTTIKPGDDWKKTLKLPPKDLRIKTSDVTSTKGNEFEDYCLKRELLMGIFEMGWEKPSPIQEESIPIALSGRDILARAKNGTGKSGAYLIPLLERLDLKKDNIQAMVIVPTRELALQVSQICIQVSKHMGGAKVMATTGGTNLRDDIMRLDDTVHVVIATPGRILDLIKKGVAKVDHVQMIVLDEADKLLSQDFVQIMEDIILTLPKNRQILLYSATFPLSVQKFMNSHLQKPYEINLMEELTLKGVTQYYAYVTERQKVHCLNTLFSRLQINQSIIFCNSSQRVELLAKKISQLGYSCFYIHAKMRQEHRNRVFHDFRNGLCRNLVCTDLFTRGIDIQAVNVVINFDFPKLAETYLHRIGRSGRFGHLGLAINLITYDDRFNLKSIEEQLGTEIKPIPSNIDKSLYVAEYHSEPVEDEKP
UniProt P11940: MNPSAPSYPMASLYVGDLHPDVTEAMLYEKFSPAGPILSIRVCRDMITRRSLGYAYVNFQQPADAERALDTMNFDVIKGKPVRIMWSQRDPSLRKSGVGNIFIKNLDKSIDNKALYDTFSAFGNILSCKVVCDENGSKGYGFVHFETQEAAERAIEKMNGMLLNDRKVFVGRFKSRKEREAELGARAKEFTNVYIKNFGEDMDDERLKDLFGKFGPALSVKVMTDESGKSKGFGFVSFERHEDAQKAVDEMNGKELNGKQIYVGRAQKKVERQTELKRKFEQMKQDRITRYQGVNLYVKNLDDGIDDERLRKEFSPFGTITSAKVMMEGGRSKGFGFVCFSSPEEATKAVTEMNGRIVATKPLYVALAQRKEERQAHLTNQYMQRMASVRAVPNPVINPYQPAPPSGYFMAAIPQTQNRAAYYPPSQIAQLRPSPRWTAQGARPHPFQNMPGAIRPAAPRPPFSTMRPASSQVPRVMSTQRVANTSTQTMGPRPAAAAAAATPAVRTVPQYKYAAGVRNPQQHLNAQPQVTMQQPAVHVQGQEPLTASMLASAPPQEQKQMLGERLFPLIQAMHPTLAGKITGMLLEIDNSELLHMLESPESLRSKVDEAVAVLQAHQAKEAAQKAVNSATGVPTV
UniProt Q9H0J9: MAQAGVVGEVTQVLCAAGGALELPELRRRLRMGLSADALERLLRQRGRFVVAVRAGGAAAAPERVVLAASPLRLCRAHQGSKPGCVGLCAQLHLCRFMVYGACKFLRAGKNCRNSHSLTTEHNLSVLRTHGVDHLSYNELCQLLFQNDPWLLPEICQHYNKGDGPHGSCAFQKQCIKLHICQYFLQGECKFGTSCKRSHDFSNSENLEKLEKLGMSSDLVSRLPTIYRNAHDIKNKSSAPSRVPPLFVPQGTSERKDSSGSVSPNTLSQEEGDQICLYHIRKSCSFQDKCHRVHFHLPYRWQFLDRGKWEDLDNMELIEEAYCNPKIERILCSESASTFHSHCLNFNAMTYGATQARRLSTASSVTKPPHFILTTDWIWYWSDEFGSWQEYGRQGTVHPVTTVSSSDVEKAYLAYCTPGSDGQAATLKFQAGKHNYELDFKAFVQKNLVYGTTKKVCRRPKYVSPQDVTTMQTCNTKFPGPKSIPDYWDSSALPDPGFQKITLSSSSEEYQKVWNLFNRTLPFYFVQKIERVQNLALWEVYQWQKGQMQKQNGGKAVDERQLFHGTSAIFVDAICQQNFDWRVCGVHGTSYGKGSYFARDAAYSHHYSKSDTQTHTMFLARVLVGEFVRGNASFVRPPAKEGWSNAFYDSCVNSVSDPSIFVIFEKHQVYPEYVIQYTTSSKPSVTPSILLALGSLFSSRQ

Measured: binding

PARP12-GFP fusion protein (from UniProt Q9H0J9 1-701)
binds: EIF3η | EIF2α | [1] | [2]

Reference: US20110097328A1 (MIT, published 2011)
